Assay results from article PMC8750328.
No constants are given. Whether binding was seen depends on the method and setting. Binding can be weak; no strength is given.

Biological target: Nse1 with the vRING domain deleted, in pGBKT7 (S. pombe)
Assay: two-hybrid; GAL4-based; pGADT7 or pACT2 (activation domain) and pGBKT7 (DNA-binding domain) plasmids co-transformed into S. cerevisiae PJ69-4a; growth on media lacking Leu, Trp and His (without or with 1 mM 3-aminotriazole) or adenine; 3 days at 30 °C

B1: Nse4, complete coding sequence, in pACT2 (protein, UniProt Q6BDR8 1-300)
chain: MSSIDKRDLRKRYRNLINKVQESRLELVDEENNNLYETITTANDLFSSVDAPTEATLDALLLTKTVDLASIKARQLHIGRPKFNIELFTKNIKQFLNYPTSHSNVTRIQEIDTAWSRLGKLASNCEKQPASLNLMVGPLSFRKKERNIQRRERLQKAPNVLTQPTMLNERNITTQENNTTKNVLHISRLLQAHQPVNFLKFITNPQSYPQTVENLFYVSFLFKEGKAALVENESGILMLETRIPPTDDQVVAGEIRNIQLVLDMTMDLYENIIKEYNIKESIIPTRAPVETSTNSNTWYG
  binding: binds
